According to the supplement of paper PMC8612539:
Further values from the same series stand in other lists.

How the values were obtained:
[1] = test system: Pasteurella multocida; test: minimum inhibitory concentration (MIC)
Protocol: (§1)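 Broth microdilution MIC (Sensititre BOPO7F bovine plate, CLSI methods) of 19 antimicrobials against field isolates of P. multocida, M. haemolytica, H. somni (deep nasopharyngeal swabs) and E. coli, Enterococcus spp. (rectal swabs) from weaned dairy heifers. Incubation 16-24 h at 35 C. MIC is the lowest concentration preventing visible growth. Values with <= or > lie at the tested range limits. Trimethoprim-sulfamethoxazole is given as the trimethoprim component of a 1:19 mixture.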

[2] = test system: Mannheimia haemolytica; test: minimum inhibitory concentration (MIC)
Protocol: as §1

Measured: minimum inhibitory concentration

CN(C)[C@@H]1C(O)=C(C(N)=O)C(=O)[C@@]2(O)C(O)=C3C(=O)c4c(O)cccc4[C@@](C)(O)[C@H]3C[C@@H]12 [Tetracycline]
> 8 µg/mL: [1]; isolate (source animal id): 30 | [1]; isolate (source animal id): 34 | [1]; isolate (source animal id): 36 | [1]; isolate (source animal id): 37 | [1]; isolate (source animal id): 48 | [1]; isolate (source animal id): 49 | [1]; isolate (source animal id): 54 | [1]; isolate (source animal id): 55 | [1]; isolate (source animal id): 58 | [1]; isolate (source animal id): 60 | [1]; isolate (source animal id): 61 | [1]; isolate (source animal id): 63 | [1]; isolate (source animal id): 64 | [1]; isolate (source animal id): 65 | [1]; isolate (source animal id): 66 | [1]; isolate (source animal id): 67 | [1]; isolate (source animal id): 69 | [1]; isolate (source animal id): 73 | [1]; isolate (source animal id): 75 | [1]; isolate (source animal id): 76 | [1]; isolate (source animal id): 77 | [1]; isolate (source animal id): 78 | [1]; isolate (source animal id): 80 | [1]; isolate (source animal id): 82 | [1]; isolate (source animal id): 83 | [1]; isolate (source animal id): 92 | [1]; isolate (source animal id): 94 | [1]; isolate (source animal id): 318 | [1]; isolate (source animal id): 319 | [1]; isolate (source animal id): 320 | [1]; isolate (source animal id): 321 | [1]; isolate (source animal id): 322 | [1]; isolate (source animal id): 324 | [1]; isolate (source animal id): 325 | [1]; isolate (source animal id): 328 | [1]; isolate (source animal id): 330 | [1]; isolate (source animal id): 333 | [1]; isolate (source animal id): 336 | [1]; isolate (source animal id): 337 | [1]; isolate (source animal id): 339 | [1]; isolate (source animal id): 340 | [1]; isolate (source animal id): 341 | [2]; isolate (source animal id): 3 | [2]; isolate (source animal id): 60 | [2]; isolate (source animal id): 61 | [2]; isolate (source animal id): 64 | [2]; isolate (source animal id): 65 | [2]; isolate (source animal id): 67 | [2]; isolate (source animal id): 68 | [2]; isolate (source animal id): 70 | [2]; isolate (source animal id): 72 | [2]; isolate (source animal id): 74 | [2]; isolate (source animal id): 76 | [2]; isolate (source animal id): 80 | [2]; isolate (source animal id): 82 | [2]; isolate (source animal id): 84 | [2]; isolate (source animal id): 85 | [2]; isolate (source animal id): 87
≤ 0.5 µg/mL: [2]; isolate (source animal id): 83
8 µg/mL: [1]; isolate (source animal id): 46 | [1]; isolate (source animal id): 88 | [1]; isolate (source animal id): 331 | [2]; isolate (source animal id): 66 | [2]; isolate (source animal id): 86
